# Library screening results

The values are deposited in ChEMBL (CHEMBL3988442, “University of Dundee, Small-Polar-MMV Screening Library” (2021)).

Mtb heat-shock: 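Assay on Mycobacterium tuberculosis, filed only as a heat shock assay from Cornell; the read-out is not stated. The concentration is filed as 10 mM, unlikely as a test dose, so the dose is not known. Direction is inferred from retests: higher values go with stronger inhibition. Size under these conditions: about 69,000 compounds, about 930 of them at 50% or above in at least one test.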
Mtb growth Cornell: 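Whole-cell assay for inhibitors of Mycobacterium tuberculosis growth, labelled Cornell in the record; the read-out is not stated. The concentration is filed as 10 mM, unlikely as a test dose, so the dose is not known. Higher means stronger inhibition (inferred from two other growth screens of the library). Size under these conditions: about 53,000 compounds, about 900 of them at 50% or above in at least one test.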

Results are given as percent effect.
The record does not define 0% and 100%; most values in the screen are far below 50% and negative numbers occur (in some assays of this library far below -100).
This is an unselected part of the compounds tested.
A dash means the value is not listed here; it may have been measured.

Compound,Mtb heat-shock,Mtb growth Cornell
CC(=O)NCC1CCN(Cc2nc(C3CC3)no2)CC1,-11.41,9.054
O=C1CN(C(=O)c2nnn(-c3ccc(C(F)(F)F)cc3)n2)CCN1,-12.83,25.26
COc1cccc2c1OCC(C(=O)N1CCC(N3CCOC3=O)CC1)C2 (stereo not given),-10.39,29.73
OCCOc1ccc(NCc2cccc3cn[nH]c23)cn1,-6.327,6.851
Cn1ccc(C(=O)N2CCN(c3cc(C#N)ccn3)CC2)cc1=O,1.245,-8.584
Cc1ccc(Nc2nccc(C3CN(C(C)C)C3)n2)nc1,-24.02,-92.42
FC(F)(F)c1cccc(OC2CCN(Cc3ccccn3)CC2)c1,45.87,15.77
Cc1ccccc1CCC1CCCN(C(=O)Cc2cc(=O)[nH]c(N)n2)C1 (stereo not given),7.753,-20.56
CN(CC(=O)NCC(F)(F)F)Cc1cccc2c1OCCO2,-14.22,-12.52
CC1Oc2ccc(S(=O)(=O)NCCCn3ccnc3)cc2NC1=O (stereo not given),-17.3,19.01
Cc1ccc(-c2noc([C@@H]3C[C@H](NC(=O)NC(C)C)CN3C)n2)cc1,-3.09,13.2
O=C(NCc1cc(F)cc(Br)c1)C1(O)CCSCC1,-19.04,22.54
COc1cc(C2CC(=O)Oc3cc(C)[nH]c(=O)c32)ccc1OCC(=O)O (stereo not given),2.068,9.547
CCc1cccc(CC(=O)NC2CCN(C(=O)NC(C)(C)C)CC2)c1,-2.21,22.88
O=C1CCC2(CCN(CCSc3ccccc3)CC2)CN1CCCO,-16.23,-5.54
CC(C)(NC(=O)C1CCN(C2CCCCC2)CC1)c1nnc(N)s1,-0.2218,-25.97
N#Cc1ccc(F)cc1Cn1cnc(C2CCC2)cc1=O,-6.633,-28.32
CCOCc1cccc(S(=O)(=O)Nc2ccn(CC)n2)c1,8.068,-13.53
[H][C@]12CC[C@]([H])(CN(Cc3coc(C)n3)C1)N(CC=C(C)C)C2,17.31,22.7
O=C(c1cncc(NCC2COc3ccccc3C2)n1)N1CCCCC1 (stereo not given),-1.815,1.539
O=S(=O)(Cc1ccccc1Cl)NCCCN1CCCC1,-5.645,-
Cc1ccc(C(=O)NCCN2CCOCC2)c(=O)[nH]1,-2.401,11.06
O=C(c1ccno1)N1CCO[C@]2(CCC[C@@H]2COCc2ccncc2)C1,-9.919,23.48
Cc1nc[nH]c1-c1nnc(SCC(=O)O)n1-c1ccccc1C(F)(F)F,-4.493,16.55
CCc1cnc(N2CC3(CCN(Cc4ccsc4)C3)C2)nc1.O=C(O)C(F)(F)F,-8.732,-14.55
COc1ccc2[nH]nc(CN3CCN(Cc4cccc(F)c4)CC3)c2c1,17.45,1.413
CCC1CCCCN1C(=O)c1ccnc(N(C)C)c1 (stereo not given),-4.729,-
Cl.Cl.[H][C@@]12CNC[C@]1([H])OCCN2Cc1c(C)noc1C,-17.03,71.41
O=C(c1cncc(Br)c1)N1CCCc2ccc(F)cc21,-25.91,-6.156
Cc1ccc(C(=O)N2CC(c3cccnc3)C2)cc1N1CCNC1=O,0.4738,-18.01
Cc1cccc(C)c1NC(=O)c1cccc(CN2CCCC2C)c1 (stereo not given),16.57,31.2
CN(C)c1ccc(C(=O)N2CCCC2c2cnn(C)c2)nn1 (stereo not given),9.052,20.97
CNC(=O)Cc1csc(NC(=O)C2CSCCC(=O)N2)n1 (stereo not given),-17.04,-37.72
CCN1CCN(C(=O)NCc2cccc(-c3cnn(C)c3)c2)CC1,7.271,9.521
Cc1oncc1C(=O)N1CC2CC1(C(=O)NCc1ccco1)C2,15.35,-
c1ccc(-c2cc(CNCCN3CCCC3)c3nnnn3c2)cc1,37.13,-23
O=C1CNc2ncnc(N3CCN(c4ccccc4F)CC3)c2N1,-6.587,-31.5
Cc1cc(NC(=O)N(CCO)Cc2ccsc2)no1,-21.23,-
CCOCCCC(=O)Nc1cccnc1-n1ccnc1C,2.871,2.275
COc1ncc(NS(=O)(=O)c2ccc(F)c(F)c2)c(OC)n1,12.44,-0.2763
CCNc1ccnc(N2CCN(Cc3ncccc3C)CC2)n1,-23.69,8.847
Cc1ccc2nc(CN3CCCCC3CCn3cccn3)cn2c1 (stereo not given),-7.043,0.9447
Cn1cc(Cl)c(CN2CCn3nc(C(=O)Nc4ccccc4)cc3C2)n1,-8.821,-10.86
CCNC(=O)CCC(=O)Nc1nc(C)c(Cc2ccc(F)cc2)s1,-4.722,14.4
COc1cccc(CN2CCCC2c2cccc(F)c2)c1OC (stereo not given),19.25,27.33
Cn1c(CN2CCOC(c3nc(C(C)(C)C)n[nH]3)C2)nnc1C1CC1 (stereo not given),-20.39,-
CC(C)c1cc(NCC(O)c2ccccn2)n2nccc2n1 (stereo not given),105.1,-
CCc1ccc(C(=O)O)cc1S(=O)(=O)Nc1c(C)ccn(C)c1=O,9.6,6.98
COc1ccc(CNc2c(C)cnc3c2c(=O)n(C)c(=O)n3C)cc1,-17.61,-33.5
COc1cccc(F)c1C(C)NC(=O)NCc1cc(C(C)C)no1 (stereo not given),4.935,-43.34
COCC1c2c(cnn2C)CCN1C(=O)c1cscn1.O=C(O)C(F)(F)F (stereo not given),0.5532,-9.299
CCn1nc2ccc(S(=O)(=O)N3CCSCC3)cn2c1=O,-15.05,2.244
COc1ncccc1CNC(=O)c1cc(F)cc(Br)c1,11.88,-1.476
Cc1nc2cc(C3CCN(Cc4ccccc4F)C3)nn2c(O)c1C (stereo not given),-11.82,20.86
C[S+]([O-])CCCNC(=O)c1cc(Br)c2c(c1)OCCO2 (stereo not given),-6.039,1.493